The results in this text go back to PubChem BioAssay AID330 (DTP/NCI, 2004).

The assay deals with P388 leukemia ip, CD2F1 mice, survival T/C. Description: NCI In Vivo Anticancer Drug Screen. Data for tumor model P388 Leukemia (intraperitoneal) in CD2F1 (CDF1) mice. The settings on record: T/C endpoint: median survival time, higher T/C = longer survival.
Where [1] appears, read: dose: 50.0 mg/kg/injection, schedule: Q01DX009 (ip), vehicle: saline.
[2] abbreviates: dose: 100.0 mg/kg/injection, schedule: Q01DX009 (ip), vehicle: saline.
[3] abbreviates: dose: 200.0 mg/kg/injection, schedule: Q01DX009 (ip), vehicle: saline.
Setting [4] is: dose: 25.0 mg/kg/injection, schedule: Q04DX002 (ip), vehicle: saline with Tween-80.
Setting [5] is: dose: 50.0 mg/kg/injection, schedule: Q01DX009 (ip), vehicle: Klucel (hydroxypropylcellulose) (HPC).
[6] abbreviates: dose: 100.0 mg/kg/injection, schedule: Q01DX009 (ip), vehicle: Klucel (hydroxypropylcellulose) (HPC).
[7] abbreviates: dose: 200.0 mg/kg/injection, schedule: Q01DX009 (ip), vehicle: Klucel (hydroxypropylcellulose) (HPC).
The mark [8] stands for this setting: dose: 50.0 mg/kg/injection, schedule: Q01DX009 (ip), vehicle: saline with Tween-80.
[9] abbreviates: dose: 12.5 mg/kg/injection, schedule: Q01DX009 (ip), vehicle: Klucel (hydroxypropylcellulose) (HPC).
The mark [10] stands for this setting: dose: 25.0 mg/kg/injection, schedule: Q01DX009 (ip), vehicle: Klucel (hydroxypropylcellulose) (HPC).
Setting [11] is: dose: 60.0 mg/kg/injection, schedule: Q01DX005 (ip), vehicle: saline.
Where [12] appears, read: dose: 120.0 mg/kg/injection, schedule: Q01DX005 (ip), vehicle: saline.
[13] abbreviates: dose: 240.0 mg/kg/injection, schedule: Q01DX005 (ip), vehicle: saline.
Where [14] appears, read: dose: 100.0 mg/kg/injection, schedule: Q01DX001 (ip), vehicle: Klucel (hydroxypropylcellulose) (HPC).
[15] abbreviates: dose: 200.0 mg/kg/injection, schedule: Q01DX001 (ip), vehicle: Klucel (hydroxypropylcellulose) (HPC).

The list does not hold the whole screen: it covers a few groups of compounds. Not every dose and run of a compound is shown. T/C gives the treated animals as a percentage of the vehicle group. Some doses have a count of surviving animals in place of a T/C: the source holds a T/C of zero for them, seemingly a mark for toxic or unscored doses. Some doses without a T/C left all or most animals alive at the check, yet need not have been tolerated: survival well below the control is almost never listed, so the zero probably covers shortened survival too. Survivors were counted at the toxicity check, usually on the fifth day, unless a day is given; later deaths do not show. Schedule codes are those of the source, taken here to give the interval after Q, in days (D) or hours (H), and the number of doses after X. For survival time, the PubChem record calls one and a half times the control and up active, and a quarter to a half above the control has no call in these data; cut-offs in other NCI protocols can differ. Some T/C values are followed by the survivors on the day toxicity was checked, most often the fifth; where neither a count nor a note follows, no animal had died by that day. Some entries were tested several times; the values are given in rising order. Some T/C values are marked as having no survivor count here; that says nothing about deaths at the dose. Some complexes appear as separate parts, the way the source draws them; their charges need not add up.

`C1CN1.Nc1ncnc2nc[nH]c12`: the T/C is, setting by setting: (dose: 12.5 mg/kg/injection, schedule: Q01DX009 (ip), vehicle: saline) 108 [5 of 6 alive] and 109 % of control; (dose: 12.5 mg/kg/injection, schedule: Q04DX003 (ip), vehicle: saline) 97 % of control; (dose: 25.0 mg/kg/injection, schedule: Q01DX009 (ip), vehicle: saline) 100 [5 of 6 alive] and 108 % of control; (dose: 25.0 mg/kg/injection, schedule: Q04DX003 (ip), vehicle: saline) 97 % of control; under setting [1], 98, 103 [5 of 6 alive], 104, 111 % of control; (dose: 50.0 mg/kg/injection, schedule: Q04DX003 (ip), vehicle: saline) 98 % of control. In addition, the T/C reads like this: under setting [2], 88, 107 [5 of 6 alive], 108 [5 of 6 alive], 124 % of control; (dose: 100.0 mg/kg/injection, schedule: Q04DX002 (ip), vehicle: saline) 107 % of control; (dose: 100.0 mg/kg/injection, schedule: Q04DX003 (ip), vehicle: saline) 98 % of control; under setting [3], 86 % of control [5 of 6 alive]; (dose: 200.0 mg/kg/injection, schedule: Q04DX002 (ip), vehicle: saline) 108 % of control; (dose: 200.0 mg/kg/injection, schedule: Q04DX003 (ip), vehicle: saline) 96 % of control. Further, the T/C (dose: 400.0 mg/kg/injection, schedule: Q04DX002 (ip), vehicle: saline) is 101 % of control and the T/C (dose: 400.0 mg/kg/injection, schedule: Q04DX003 (ip), vehicle: saline) is 99 % of control. The survivor count under setting [3] was 3 of 6.

In the case of `CC(C)OP(C)(=O)O.[Tl]`, the T/C under setting [4] is 110 % of control [survivor count not shown] and the T/C (dose: 50.0 mg/kg/injection, schedule: Q04DX002 (ip), vehicle: saline with Tween-80) was 115 % of control [survivor count not shown].

For `CN(C)/C(N)=N/P(=O)(OCc1ccccc1)OCc1ccccc1`, the T/C reads like this: under setting [5], 109 % of control; under setting [6], 106 % of control; under setting [7], 99 % of control.

For `COc1ccc(C2=CCN(c3ccc(OC)cc3)P(=O)(Cl)O2)cc1` (stereo not given), the T/C is 103 % of control (dose: 50.0 mg/kg/injection, schedule: Q01DX005 (ip), vehicle: Klucel (hydroxypropylcellulose) (HPC)); 106 % of control (dose: 100.0 mg/kg/injection, schedule: Q01DX005 (ip), vehicle: Klucel (hydroxypropylcellulose) (HPC)); 103 % of control (dose: 200.0 mg/kg/injection, schedule: Q01DX005 (ip), vehicle: Klucel (hydroxypropylcellulose) (HPC)).

As to `COP(C)(=O)O.[Th]`, the T/C is 87 % of control [survivor count not shown] under setting [8] and 87 % of control [survivor count not shown] (dose: 100.0 mg/kg/injection, schedule: Q01DX009 (ip), vehicle: saline with Tween-80).

For `BrCCN(CCBr)c1ccc2ccccc2c1`, the T/C is 136 % of control [5 of 6 alive] (dose: 6.25 mg/kg/injection, schedule: Q01DX009 (ip), vehicle: Klucel (hydroxypropylcellulose) (HPC)); 148 % of control under setting [9]; 160 % of control [5 of 6 alive] under setting [10]; 95 [5 of 6 alive] and 156 % of control under setting [5]. Besides, the survivor count by setting is: under setting [6], 6 of 6; under setting [7], 5 of 6.

As for `CC[P+]1(c2ccccc2)CCC(C)c2ccccc21.F[P-](F)(F)(F)(F)F` (stereo not given), the T/C is 108 % of control (dose: 1.56 mg/kg/injection, schedule: Q04DX002 (ip), vehicle: saline); 106 % of control [5 of 6 alive] (dose: 3.13 mg/kg/injection, schedule: Q04DX002 (ip), vehicle: saline); 121 % of control (dose: 6.25 mg/kg/injection, schedule: Q04DX002 (ip), vehicle: saline). The survivor count is, setting by setting: (dose: 6.25 mg/kg/injection, schedule: Q04DX002 (ip), vehicle: saline with Tween-80) 6 of 6; (dose: 12.5 mg/kg/injection, schedule: Q04DX002 (ip), vehicle: saline with Tween-80) 3 of 6; under setting [4], 0 of 6.

For the molecule `O=[N+]([O-])c1cc([N+](=O)[O-])c(O)c([N+](=O)[O-])c1.c1ccc(CC2CCCN2)cc1`, the T/C under setting [11] was 104 % of control and the T/C under setting [12] is 96 % of control. The survivor count under setting [13] was 2 of 6.

As to `Nc1ccc(S(=O)(=O)N(CCCl)CCCl)cc1`, the T/C is, setting by setting: under setting [9], 95 [5 of 6 alive] and 108 % of control; under setting [10], 95 [5 of 6 alive] and 101 % of control; under setting [5], 95 and 127 % of control.

As for `COP(C)(=O)O`, the T/C by setting is: (dose: 50.0 mg/kg/injection, schedule: Q01DX001 (ip), vehicle: Klucel (hydroxypropylcellulose) (HPC)) 96 % of control [survivor count not shown]; under setting [14], 88 % of control [survivor count not shown]; under setting [15], 94 % of control [survivor count not shown].

With `CN1N=C(c2ccccc2)N2P(=O)(c3ccccc3)N3C(c4ccccc4)=NN(C)P123N` (stereo not given), the T/C under setting [11] was 104 % of control, the T/C under setting [12] was 94 % of control [4 of 6 alive] and the T/C under setting [13] was 95 % of control.

Regarding `O=[N+]([O-])c1ccc(OCC(COc2ccc([N+](=O)[O-])cc2[N+](=O)[O-])(COc2ccc([N+](=O)[O-])cc2[N+](=O)[O-])COc2ccc([N+](=O)[O-])cc2[N+](=O)[O-])c([N+](=O)[O-])c1`, the T/C (dose: 12.5 mg/kg/injection, schedule: Q01DX009 (ip), vehicle: saline with Tween-80) was 105 % of control; the T/C (dose: 25.0 mg/kg/injection, schedule: Q01DX009 (ip), vehicle: saline with Tween-80) is 104 % of control; the T/C under setting [8] is 107 % of control.

On to `CC(=O)C1=CCCC2CCC1N2` (stereo not given), for which the T/C was 97 % of control (dose: 50.0 micrograms/kg/injection, schedule: Q01DX009 (ip), vehicle: saline + alcohol); 100 % of control (dose: 100.0 micrograms/kg/injection, schedule: Q01DX009 (ip), vehicle: saline + alcohol); 101 % of control (dose: 200.0 micrograms/kg/injection, schedule: Q01DX009 (ip), vehicle: saline + alcohol); 101 % of control (dose: 400.0 micrograms/kg/injection, schedule: Q01DX009 (ip), vehicle: saline + alcohol).

Consider `CN1CCC(O)(c2ccccc2)CC1.O=[N+]([O-])c1cc([N+](=O)[O-])c(O)c([N+](=O)[O-])c1`, for which the T/C (dose: 60.0 mg/kg/injection, schedule: Q01DX005 (ip), vehicle: saline with Tween-80) is 97 % of control; the T/C (dose: 120.0 mg/kg/injection, schedule: Q01DX005 (ip), vehicle: saline with Tween-80) is 105 % of control; the T/C (dose: 240.0 mg/kg/injection, schedule: Q01DX005 (ip), vehicle: saline with Tween-80) was 102 % of control [5 of 6 alive].

With `CC(C)OP(C)(=O)OC(C)C.[Cl][Nb]([Cl])([Cl])([Cl])[Cl]`, the T/C under setting [14] is 95 % of control [survivor count not shown]; the T/C under setting [15] was 95 % of control [survivor count not shown]; the T/C (dose: 400.0 mg/kg/injection, schedule: Q01DX001 (ip), vehicle: Klucel (hydroxypropylcellulose) (HPC)) was 94 % of control [survivor count not shown].

For the molecule `CC(C)OP(C)(=O)OC(C)C.CC(C)OP(C)(=O)OC(C)C.CC(C)OP(C)(=O)OC(C)C.CC(C)OP(C)(=O)OC(C)C.[Mn+2].[O-][Cl+3]([O-])([O-])O`, the T/C runs as follows: under setting [1], 111 % of control [survivor count not shown]; under setting [2], 120 % of control [survivor count not shown]; under setting [3], 116 % of control [survivor count not shown].
